The other results are listed elsewhere or left out.
Key:
Test in all cases: log2 fold change, soluble protein after heating vs DMSO (PISA); higher = thermal stabilisation; K562 lysate, 10 uM; active = over 0.2 and 3.5 SD of the protein, either way, in both replicates (recomputed)
ibrutinib = compound: C=CC(=O)N1CCC[C@@H](n2nc(-c3ccc(Oc4ccccc4)cc3)c3c(N)ncnc32)C1 [ibrutinib]
Method in brief: (§1)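 The values are log-two fold changes in thermal stability compared with solvent controls and come from duplicates. They were obtained by TMTpro 16plex LC-MS/MS, with channel sums equalised, on the supernatant after 21,000xg for 90 min. That supernatant came from crude K562 extract at 1 mg/mL protein treated with 10 μM compound for 30 min, heated for 3 min across 48°C-58°C, pooled and brought to 0.5% NP-40 at 4°C.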

Chains of the proteins cited; added tags and fusions are not shown. Lines headed by an entry give the natural chain unless they say otherwise; changes in a name come on top.
UniProt Q8IV08: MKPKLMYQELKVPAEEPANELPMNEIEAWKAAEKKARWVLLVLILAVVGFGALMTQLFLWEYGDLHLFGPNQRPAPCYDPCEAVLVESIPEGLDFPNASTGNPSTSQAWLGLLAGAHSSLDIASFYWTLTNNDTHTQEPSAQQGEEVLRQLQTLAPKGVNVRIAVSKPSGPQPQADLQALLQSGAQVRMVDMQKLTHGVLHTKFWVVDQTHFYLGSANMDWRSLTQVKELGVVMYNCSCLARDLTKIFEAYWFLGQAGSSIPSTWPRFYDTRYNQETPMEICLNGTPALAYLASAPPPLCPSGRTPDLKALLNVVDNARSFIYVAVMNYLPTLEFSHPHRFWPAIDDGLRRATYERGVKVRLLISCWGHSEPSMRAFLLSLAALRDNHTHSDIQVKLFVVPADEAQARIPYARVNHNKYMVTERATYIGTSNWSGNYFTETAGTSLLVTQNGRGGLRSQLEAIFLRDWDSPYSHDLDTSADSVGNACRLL
UniProt Q9HAU0: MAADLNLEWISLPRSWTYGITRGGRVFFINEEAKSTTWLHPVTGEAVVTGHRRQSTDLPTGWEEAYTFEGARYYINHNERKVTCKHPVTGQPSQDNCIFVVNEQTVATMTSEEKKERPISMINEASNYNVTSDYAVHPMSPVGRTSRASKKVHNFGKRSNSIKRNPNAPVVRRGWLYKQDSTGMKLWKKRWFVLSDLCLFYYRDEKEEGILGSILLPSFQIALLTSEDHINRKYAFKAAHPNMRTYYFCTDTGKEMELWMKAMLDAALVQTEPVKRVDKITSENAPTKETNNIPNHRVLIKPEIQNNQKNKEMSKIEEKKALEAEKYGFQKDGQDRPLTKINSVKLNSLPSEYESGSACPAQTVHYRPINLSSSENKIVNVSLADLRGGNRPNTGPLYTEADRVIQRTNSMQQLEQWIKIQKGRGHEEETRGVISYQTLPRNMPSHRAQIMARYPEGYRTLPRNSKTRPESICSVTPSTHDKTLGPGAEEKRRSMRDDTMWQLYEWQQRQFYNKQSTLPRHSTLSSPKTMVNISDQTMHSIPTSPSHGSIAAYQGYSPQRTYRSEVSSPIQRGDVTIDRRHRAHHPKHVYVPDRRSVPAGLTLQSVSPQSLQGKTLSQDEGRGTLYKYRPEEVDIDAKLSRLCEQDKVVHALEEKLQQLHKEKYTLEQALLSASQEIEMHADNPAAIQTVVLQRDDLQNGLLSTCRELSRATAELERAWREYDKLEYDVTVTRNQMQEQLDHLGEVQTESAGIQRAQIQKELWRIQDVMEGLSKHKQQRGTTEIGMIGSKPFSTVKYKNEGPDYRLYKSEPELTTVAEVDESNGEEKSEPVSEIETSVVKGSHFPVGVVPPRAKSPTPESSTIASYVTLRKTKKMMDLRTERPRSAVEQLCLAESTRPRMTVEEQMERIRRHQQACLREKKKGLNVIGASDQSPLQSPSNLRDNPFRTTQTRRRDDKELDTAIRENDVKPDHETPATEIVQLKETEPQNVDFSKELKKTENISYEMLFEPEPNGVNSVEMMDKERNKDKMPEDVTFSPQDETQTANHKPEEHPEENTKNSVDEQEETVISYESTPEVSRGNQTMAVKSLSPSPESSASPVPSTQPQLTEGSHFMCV
UniProt Q96BK5: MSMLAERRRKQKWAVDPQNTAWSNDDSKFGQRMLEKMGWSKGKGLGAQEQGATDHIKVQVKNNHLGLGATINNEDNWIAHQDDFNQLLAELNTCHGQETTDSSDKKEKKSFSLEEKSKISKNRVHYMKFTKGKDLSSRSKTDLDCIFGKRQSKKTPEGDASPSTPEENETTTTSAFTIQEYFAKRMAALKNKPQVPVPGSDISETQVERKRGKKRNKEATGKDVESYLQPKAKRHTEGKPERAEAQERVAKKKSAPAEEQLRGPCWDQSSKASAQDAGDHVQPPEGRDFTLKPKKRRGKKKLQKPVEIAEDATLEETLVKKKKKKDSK
UniProt P48426: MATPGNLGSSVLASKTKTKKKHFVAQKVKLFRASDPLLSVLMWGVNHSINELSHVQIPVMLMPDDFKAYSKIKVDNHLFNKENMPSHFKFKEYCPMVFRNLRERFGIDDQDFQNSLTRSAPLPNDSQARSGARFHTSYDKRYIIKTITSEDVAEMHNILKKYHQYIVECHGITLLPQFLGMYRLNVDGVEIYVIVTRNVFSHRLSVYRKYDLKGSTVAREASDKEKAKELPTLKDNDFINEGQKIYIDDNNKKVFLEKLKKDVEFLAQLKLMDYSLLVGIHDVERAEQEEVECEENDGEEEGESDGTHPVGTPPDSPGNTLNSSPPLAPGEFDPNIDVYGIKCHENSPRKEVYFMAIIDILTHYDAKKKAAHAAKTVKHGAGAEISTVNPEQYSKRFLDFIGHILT
UniProt O95394: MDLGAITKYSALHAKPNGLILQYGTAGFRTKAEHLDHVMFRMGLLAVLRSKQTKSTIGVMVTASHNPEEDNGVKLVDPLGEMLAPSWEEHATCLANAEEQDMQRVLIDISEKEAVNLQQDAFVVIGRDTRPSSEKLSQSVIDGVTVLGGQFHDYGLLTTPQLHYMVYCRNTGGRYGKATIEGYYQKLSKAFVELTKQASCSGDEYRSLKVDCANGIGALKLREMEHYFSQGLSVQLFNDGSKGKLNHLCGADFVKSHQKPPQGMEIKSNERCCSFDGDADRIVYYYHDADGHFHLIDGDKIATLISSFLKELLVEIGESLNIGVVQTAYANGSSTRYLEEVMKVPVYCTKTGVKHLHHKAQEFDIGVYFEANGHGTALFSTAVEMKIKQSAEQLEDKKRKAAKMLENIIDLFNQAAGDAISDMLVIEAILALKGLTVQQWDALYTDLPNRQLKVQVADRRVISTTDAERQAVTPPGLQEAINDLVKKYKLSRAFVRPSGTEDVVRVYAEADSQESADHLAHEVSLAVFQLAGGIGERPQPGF
UniProt Q15111: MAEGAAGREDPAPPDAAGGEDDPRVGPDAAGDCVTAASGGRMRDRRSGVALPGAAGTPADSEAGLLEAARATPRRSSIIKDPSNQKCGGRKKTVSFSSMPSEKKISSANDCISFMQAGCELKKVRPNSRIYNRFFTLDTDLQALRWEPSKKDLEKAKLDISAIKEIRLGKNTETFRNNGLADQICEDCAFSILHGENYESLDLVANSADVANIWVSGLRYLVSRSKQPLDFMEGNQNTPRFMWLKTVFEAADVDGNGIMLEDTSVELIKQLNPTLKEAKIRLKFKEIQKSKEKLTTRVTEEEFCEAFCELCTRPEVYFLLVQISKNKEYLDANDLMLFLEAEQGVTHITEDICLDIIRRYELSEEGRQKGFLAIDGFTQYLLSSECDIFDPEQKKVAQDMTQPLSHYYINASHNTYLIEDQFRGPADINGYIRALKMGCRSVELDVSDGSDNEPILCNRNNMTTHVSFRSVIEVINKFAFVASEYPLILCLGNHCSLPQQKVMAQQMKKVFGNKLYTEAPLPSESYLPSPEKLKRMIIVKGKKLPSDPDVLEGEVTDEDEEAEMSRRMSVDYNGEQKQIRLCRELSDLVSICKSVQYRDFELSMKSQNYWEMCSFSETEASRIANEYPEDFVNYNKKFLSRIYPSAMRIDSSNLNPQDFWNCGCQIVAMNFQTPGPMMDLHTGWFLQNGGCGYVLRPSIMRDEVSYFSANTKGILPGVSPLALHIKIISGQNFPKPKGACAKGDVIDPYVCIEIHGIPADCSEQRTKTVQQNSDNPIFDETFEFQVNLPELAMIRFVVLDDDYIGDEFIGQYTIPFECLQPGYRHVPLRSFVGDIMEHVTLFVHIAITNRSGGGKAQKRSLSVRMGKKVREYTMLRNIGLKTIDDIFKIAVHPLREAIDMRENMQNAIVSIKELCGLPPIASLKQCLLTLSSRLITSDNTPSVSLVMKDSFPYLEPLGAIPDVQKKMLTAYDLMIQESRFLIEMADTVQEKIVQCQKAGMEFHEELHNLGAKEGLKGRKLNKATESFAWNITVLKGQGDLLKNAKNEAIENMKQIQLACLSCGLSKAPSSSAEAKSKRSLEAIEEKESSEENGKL
UniProt Q9Y237, whole entry, looked up: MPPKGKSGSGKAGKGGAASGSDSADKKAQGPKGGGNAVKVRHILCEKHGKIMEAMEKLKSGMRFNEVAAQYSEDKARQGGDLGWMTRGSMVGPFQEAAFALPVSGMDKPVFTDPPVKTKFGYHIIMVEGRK
UniProt Q9H8W4: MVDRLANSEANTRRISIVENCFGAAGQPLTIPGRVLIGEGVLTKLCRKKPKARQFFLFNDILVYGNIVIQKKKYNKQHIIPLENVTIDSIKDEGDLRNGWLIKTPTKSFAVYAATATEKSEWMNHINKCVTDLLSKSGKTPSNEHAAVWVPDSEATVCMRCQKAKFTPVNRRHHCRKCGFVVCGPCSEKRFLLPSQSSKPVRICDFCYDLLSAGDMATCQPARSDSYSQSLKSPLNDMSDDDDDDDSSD
UniProt Q13393: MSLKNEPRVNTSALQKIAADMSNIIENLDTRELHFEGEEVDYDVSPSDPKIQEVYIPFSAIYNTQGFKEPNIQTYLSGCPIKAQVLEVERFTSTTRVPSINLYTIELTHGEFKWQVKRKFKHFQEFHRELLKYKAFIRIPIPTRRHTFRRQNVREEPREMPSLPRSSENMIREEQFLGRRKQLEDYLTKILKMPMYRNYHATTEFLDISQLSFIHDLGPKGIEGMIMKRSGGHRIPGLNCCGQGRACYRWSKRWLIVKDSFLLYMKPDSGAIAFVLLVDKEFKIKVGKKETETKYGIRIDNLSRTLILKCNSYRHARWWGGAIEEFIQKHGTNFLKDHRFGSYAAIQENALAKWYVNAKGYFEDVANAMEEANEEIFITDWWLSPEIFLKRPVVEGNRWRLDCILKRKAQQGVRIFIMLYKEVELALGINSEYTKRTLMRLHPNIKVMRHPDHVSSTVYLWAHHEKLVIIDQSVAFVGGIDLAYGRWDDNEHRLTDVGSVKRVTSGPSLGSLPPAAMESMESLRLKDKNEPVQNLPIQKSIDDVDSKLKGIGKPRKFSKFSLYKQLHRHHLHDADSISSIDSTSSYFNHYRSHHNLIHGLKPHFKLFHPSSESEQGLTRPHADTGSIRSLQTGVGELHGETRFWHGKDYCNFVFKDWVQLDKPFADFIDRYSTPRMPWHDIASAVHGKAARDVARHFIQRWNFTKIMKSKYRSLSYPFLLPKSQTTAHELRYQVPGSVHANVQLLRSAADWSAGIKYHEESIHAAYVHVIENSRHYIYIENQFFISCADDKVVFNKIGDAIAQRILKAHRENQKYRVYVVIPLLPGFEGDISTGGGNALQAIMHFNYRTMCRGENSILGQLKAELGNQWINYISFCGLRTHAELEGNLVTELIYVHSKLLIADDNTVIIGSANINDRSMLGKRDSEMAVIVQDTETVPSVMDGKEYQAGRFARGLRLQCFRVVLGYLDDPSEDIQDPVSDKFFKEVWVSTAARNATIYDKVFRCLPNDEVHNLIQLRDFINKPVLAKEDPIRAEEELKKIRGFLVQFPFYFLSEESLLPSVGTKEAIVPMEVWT
UniProt Q9H814, whole entry, looked up: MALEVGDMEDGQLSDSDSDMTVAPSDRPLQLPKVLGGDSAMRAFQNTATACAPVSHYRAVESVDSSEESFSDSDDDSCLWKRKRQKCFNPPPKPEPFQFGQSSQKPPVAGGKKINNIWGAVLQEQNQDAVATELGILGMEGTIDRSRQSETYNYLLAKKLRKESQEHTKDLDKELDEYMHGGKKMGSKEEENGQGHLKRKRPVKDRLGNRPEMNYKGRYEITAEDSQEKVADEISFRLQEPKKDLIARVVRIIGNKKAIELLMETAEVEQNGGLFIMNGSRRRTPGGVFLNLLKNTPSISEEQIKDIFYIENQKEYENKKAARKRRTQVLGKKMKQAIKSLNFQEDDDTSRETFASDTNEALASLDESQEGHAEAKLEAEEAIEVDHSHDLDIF
UniProt Q8WXW3: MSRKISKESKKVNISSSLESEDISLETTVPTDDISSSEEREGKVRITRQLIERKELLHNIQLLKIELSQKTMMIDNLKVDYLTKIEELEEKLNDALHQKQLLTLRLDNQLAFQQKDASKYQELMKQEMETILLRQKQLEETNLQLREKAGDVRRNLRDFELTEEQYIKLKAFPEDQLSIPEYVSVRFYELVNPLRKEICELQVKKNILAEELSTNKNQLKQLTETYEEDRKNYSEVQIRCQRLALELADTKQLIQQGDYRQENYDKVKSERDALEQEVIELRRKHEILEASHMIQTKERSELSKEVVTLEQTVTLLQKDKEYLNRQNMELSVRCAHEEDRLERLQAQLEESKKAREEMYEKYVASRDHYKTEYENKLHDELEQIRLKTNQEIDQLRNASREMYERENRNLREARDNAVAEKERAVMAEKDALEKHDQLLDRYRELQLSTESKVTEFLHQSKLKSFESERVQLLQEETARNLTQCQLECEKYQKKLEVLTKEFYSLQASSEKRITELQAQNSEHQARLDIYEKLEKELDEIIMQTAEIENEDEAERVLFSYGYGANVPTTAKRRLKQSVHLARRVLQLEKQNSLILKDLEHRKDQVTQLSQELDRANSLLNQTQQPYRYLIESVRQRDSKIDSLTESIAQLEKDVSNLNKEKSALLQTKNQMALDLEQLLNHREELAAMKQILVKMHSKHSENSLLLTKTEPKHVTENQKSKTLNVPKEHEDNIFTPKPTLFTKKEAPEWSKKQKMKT

[1] = compound: CC(=O)c1cnc2ccc(-c3cc(Cl)c(O)c(Cl)c3)nc2c1N[C@H]1CC[C@H](CN(C)C)CC1
Method in brief: as §1

ralimetinib = compound: CC(C)(C)Cn1c(N)nc2ccc(-c3[nH]c(C(C)(C)C)nc3-c3ccc(F)cc3)nc21 [ralimetinib]
Method in brief: as §1

[2] = compound: CC(C)(O)CC(=O)NCCn1ccc2ncnc(Nc3ccc(Oc4cccc(C(F)(F)F)c4)c(Cl)c3)c21
Method in brief: as §1

[3] = compound: CC(C)C1=C2N=C(C=C(N2N=C1)NCC3=CC=CC=C3)NCCCCCCN
Method in brief: as §1

[4] = compound: CC1=C(C(CC(=O)N1)C2=CC=C(C=C2)C(F)(F)F)C(=O)NC3=C(C=C4C(=C3)C=NN4)F
Method in brief: as §1

[5] = compound: CC1=C(C2=C(C=C1)C(=O)C3=CC=CC=C3N2CCCN)C
Method in brief: as §1

[6] = compound: CC1=C(C=C(C=C1)NC(=O)C2=CC(=CC=C2)C(C)(C)C#N)NC3=CC4=C(C=C3)N=CN(C4=O)C
Method in brief: as §1

[7] = compound: CC1=C(C=C(C=C1)NC(=O)C2=CC(=CC=C2)N(C)C)NC(=O)C3=CC=C(C=C3)O
Method in brief: as §1

[8] = compound: CC1=CC=C(C=C1)SC2=C3C=C(SC3=CN=C2)C(=O)N
Method in brief: as §1

vemurafenib = compound: CCCS(=O)(=O)Nc1ccc(F)c(C(=O)c2c[nH]c3ncc(-c4ccc(Cl)cc4)cc23)c1F [vemurafenib]
Method in brief: as §1

[9] = compound: CCCS(=O)(=O)Nc1ccc(F)c(C(=O)c2c[nH]c3ncc(Cl)cc23)c1F
Method in brief: as §1

barasertib = compound: CCN(CCCOc1ccc2c(Nc3cc(CC(=O)Nc4cccc(F)c4)[nH]n3)ncnc2c1)CCOP(=O)(O)O [barasertib]
Method in brief: as §1

[10] = compound: CC[C@@H]1C(=O)N(C)c2cnc(Nc3ccc(C(=O)NC4CCN(C)CC4)cc3OC)nc2N1C1CCCC1
Method in brief: as §1

volasertib = compound: CC[C@@H]1C(=O)N(C)c2cnc(Nc3ccc(C(=O)N[C@H]4CC[C@H](N5CCN(CC6CC6)CC5)CC4)cc3OC)nc2N1C(C)C [volasertib]
Method in brief: as §1

[11] = compound: CCn1c(C(=O)N(C2CC2)C2CC2)cc2c3c(ncn3C)c(Nc3cc(C)n(C)n3)nc21
Method in brief: as §1

[12] = compound: CCn1cc(-c2ccnc3[nH]c(-c4cccc(CN(C)C)c4)cc23)c(-c2ccc(NC(=O)N(C)C)cc2)n1
Method in brief: as §1

[13] = compound: CN1CCC(CNc2ccc3ncc(-c4cccc(OC(F)(F)F)c4)n3n2)CC1
Method in brief: as §1

saracatinib = compound: CN1CCN(CCOc2cc(OC3CCOCC3)c3c(Nc4c(Cl)ccc5c4OCO5)ncnc3c2)CC1 [saracatinib]
Method in brief: as §1

sotrastaurin = compound: CN1CCN(c2nc(C3=C(c4c[nH]c5ccccc45)C(=O)NC3=O)c3ccccc3n2)CC1 [sotrastaurin]
Method in brief: as §1

Measured: log2 fold change

PHKB isoform 3 (UniProt Q93100)
inactive: ibrutinib -0.004 | [1] 0.071 | ralimetinib 0.008 | [2] -0.052 | [3] -0.003 | [4] 0.008 | [5] -0.069 | [6] -0.019 | [7] 0.022 | [8] -0.049 | vemurafenib -0.043 | [9] -0.007 | barasertib 0.04 | [10] 0.022 | volasertib -0.034 | [11] 0.009 | [12] -0.146 | [13] 0.138 | saracatinib 0.019 | sotrastaurin -0.014

PLD3 (UniProt Q8IV08)
inactive: ibrutinib -0.005 | [1] -0.013 | ralimetinib 0.023 | [2] -0.024 | [3] -0.017 | [4] 0.014 | [5] -0.009 | [6] 0.02 | [7] -0.045 | [8] 0.002 | vemurafenib 0 | [9] 0.017 | barasertib 0.001 | [10] 0.005 | volasertib -0.004 | [11] -0.007 | [12] -0.106 | [13] 0.103 | saracatinib -0.083 | sotrastaurin -0.002

PLCD1 isoform 2 (UniProt P51178)
inactive: ibrutinib -0.032 | [1] -0.007 | ralimetinib 0.009 | [2] -0.017 | [3] -0.017 | [4] -0.008 | [5] 0.026 | [6] 0.102 | [7] 0.014 | [8] 0.026 | vemurafenib -0.019 | [9] 0.022 | barasertib 0.027 | [10] -0.015 | volasertib -0.058 | [11] 0.032 | [12] 0.051 | [13] -0.024 | saracatinib 0.003 | sotrastaurin 0.042

PLEKHA5 isoform 6 (UniProt Q9HAU0)
inactive: ibrutinib 0.075 | [1] 0.003 | ralimetinib -0.004 | [2] -0.001 | [3] 0.069 | [4] -0.013 | [5] -0.033 | [6] 0.028 | [7] 0.022 | [8] -0.036 | vemurafenib 0.003 | [9] -0.003 | barasertib 0.043 | [10] -0.005 | volasertib 0.003 | [11] 0.026 | [12] -0.117 | [13] -0.088 | saracatinib 0.027 | sotrastaurin 0.02

PLBD1 (UniProt Q6P4A8)
inactive: ibrutinib 0.065 | [1] -0.043 | ralimetinib 0.007 | [2] 0.016 | [3] -0.033 | [4] -0.017 | [5] -0.033 | [6] 0.019 | [7] -0.052 | [8] 0.006 | vemurafenib -0.006 | [9] 0.034 | barasertib 0.057 | [10] 0.038 | volasertib 0.056 | [11] 0.009 | [12] -0.032 | [13] 0.038 | saracatinib 0.061 | sotrastaurin 0.043

PINX1 (UniProt Q96BK5)
inactive: ibrutinib 0.006 | [1] -0.003 | ralimetinib -0.07 | [2] 0.017 | [3] 0.041 | [4] 0.064 | [5] -0.183 | [6] 0.066 | [7] -0.028 | [8] 0.05 | vemurafenib 0.233 | [9] -0.069 | barasertib 0.105 | [10] 0.163 | volasertib -0.019 | [11] 0.051 | [12] 0.092 | [13] 0.09 | saracatinib 0.074 | sotrastaurin 0.025

PIP4K2A (UniProt P48426)
inactive: ibrutinib -0.052 | [1] 0.086 | ralimetinib 0.032 | [2] -0.053 | [3] -0.043 | [4] -0.017 | [5] -0.019 | [6] -0.002 | [7] -0.028 | [8] -0.026 | vemurafenib 0 | [9] -0.009 | barasertib -0.051 | volasertib 0.087 | [11] 0.073 | [12] -0.035 | [13] 0.155 | saracatinib 0.036 | sotrastaurin 0.02
active: [10] 0.31

PGM3 isoform 4 (UniProt O95394)
inactive: ibrutinib 0.004 | [1] 0 | ralimetinib 0.017 | [2] 0.007 | [3] 0.003 | [4] -0.004 | [5] 0.025 | [6] -0.005 | [7] -0.002 | [8] 0.023 | vemurafenib -0.044 | [9] 0.011 | barasertib -0.009 | [10] -0.083 | volasertib -0.039 | [11] 0.01 | [12] 0.018 | [13] -0.006 | saracatinib -0.012 | sotrastaurin 0.013

PLCL1 (UniProt Q15111)
inactive: ibrutinib 0.027 | [1] -0.037 | ralimetinib -0.015 | [2] -0.062 | [3] 0.001 | [4] 0.018 | [5] -0.087 | [6] 0.028 | [7] 0.041 | [8] 0.002 | vemurafenib -0.015 | [9] 0.031 | barasertib 0.09 | [10] -0.038 | volasertib -0.07 | [11] -0.079 | [12] -0.015 | [13] -0.056 | saracatinib 0.038 | sotrastaurin -0.005

PIN4 isoform 2 (UniProt Q9Y237)
inactive: ibrutinib 0.022 | [1] 0.016 | ralimetinib -0.016 | [2] -0.064 | [3] -0.026 | [4] -0.062 | [5] 0.012 | [6] -0.043 | [7] 0.013 | [8] -0.017 | vemurafenib 0.008 | [9] -0.01 | barasertib 0.01 | [10] 0.057 | volasertib 0.022 | [11] -0.067 | [12] -0.067 | [13] 0.011 | saracatinib 0.023 | sotrastaurin 0.058

Taken from the listing (two entries):
PLCL1 (UniProt Q15111)
inactive: ibrutinib 0.027 | [1] -0.037 | ralimetinib -0.015 | [2] -0.062 | [3] 0.001 | [4] 0.018 | [5] -0.087 | [6] 0.028 | [7] 0.041 | [8] 0.002 | vemurafenib -0.015 | [9] 0.031 | barasertib 0.09 | [10] -0.038 | volasertib -0.07 | [11] -0.079 | [12] -0.015 | [13] -0.056 | saracatinib 0.038 | sotrastaurin -0.005

PIN4 isoform 2 (UniProt Q9Y237)
inactive: ibrutinib 0.022 | [1] 0.016 | ralimetinib -0.016 | [2] -0.064 | [3] -0.026 | [4] -0.062 | [5] 0.012 | [6] -0.043 | [7] 0.013 | [8] -0.017 | vemurafenib 0.008 | [9] -0.01 | barasertib 0.01 | [10] 0.057 | volasertib 0.022 | [11] -0.067 | [12] -0.067 | [13] 0.011 | saracatinib 0.023 | sotrastaurin 0.058

Remaining list, next part:

PI4K2A (UniProt Q9BTU6)
inactive: ibrutinib -0.017 | [1] 0.044 | ralimetinib 0.002 | [2] -0.037 | [3] -0.006 | [4] -0.028 | [5] 0.028 | [6] -0.06 | [7] 0 | [8] -0.009 | vemurafenib -0.025 | [9] 0.037 | barasertib 0.041 | [10] -0.009 | volasertib -0.027 | [11] 0.004 | [12] 0.019 | [13] 0.042 | saracatinib -0.037 | sotrastaurin 0.102

PLEKHF2 (UniProt Q9H8W4)
inactive: ibrutinib 0.033 | [1] -0.003 | ralimetinib 0.008 | [2] -0.05 | [3] 0.051 | [4] 0.001 | [5] -0.053 | [6] 0.114 | [7] 0.099 | [8] -0.001 | vemurafenib -0.019 | [9] 0.04 | barasertib -0.019 | [10] 0.026 | volasertib -0.007 | [11] -0.006 | [12] 0.149 | [13] -0.034 | saracatinib -0.126 | sotrastaurin -0.012

PHF3 (UniProt Q92576)
inactive: ibrutinib 0.007 | [1] 0.011 | ralimetinib -0.005 | [2] -0.035 | [3] -0.006 | [4] 0.054 | [5] -0.031 | [6] -0.005 | [7] 0 | [8] -0.012 | vemurafenib -0.019 | [9] 0.024 | barasertib 0.027 | [10] 0.136 | volasertib -0.008 | [11] 0.008 | [12] 0.032 | [13] 0.003 | saracatinib 0.03 | sotrastaurin -0.015

PLD1 (UniProt Q13393)
inactive: ibrutinib 0.013 | [1] -0.009 | ralimetinib 0.001 | [2] -0.011 | [3] 0.012 | [4] 0.051 | [5] 0 | [6] 0.007 | [7] 0.033 | [8] -0.001 | vemurafenib 0.022 | [9] -0.001 | barasertib 0.009 | [10] -0.067 | volasertib -0.024 | [11] -0.015 | [12] -0.216 | [13] 0.063 | saracatinib 0.05 | sotrastaurin 0.032

PHAX (UniProt Q9H814)
inactive: ibrutinib 0.019 | [1] -0.008 | ralimetinib -0.04 | [2] -0.031 | [3] -0.009 | [4] -0.004 | [5] 0.003 | [6] -0.014 | [7] -0.035 | [8] -0.026 | vemurafenib 0.033 | [9] 0.027 | barasertib -0.038 | [10] 0.087 | volasertib 0.006 | [11] -0.023 | [12] -0.039 | [13] 0.042 | saracatinib 0.025 | sotrastaurin 0.014

PIBF1 (UniProt Q8WXW3)
inactive: ibrutinib -0.045 | [1] -0.057 | ralimetinib -0.005 | [2] 0.009 | [3] 0.003 | [4] 0.018 | [5] 0.019 | [6] -0.026 | [7] 0.058 | [8] 0.003 | vemurafenib 0.265 | [9] 0.065 | barasertib 0.046 | [10] -0.001 | volasertib 0.007 | [11] 0.087 | [12] -0.025 | [13] 0.029 | saracatinib 0.007 | sotrastaurin -0.003
